Test results as given in US20090099197A1 (priority 2005, published 2009).

Columns and labels:
[1] = system: K562 (erythromyeloblastoid CML) cells; test: cells; conditions: Homo sapiens, K562, 72 h
[2] = system: K562-R (K562/STI-571/R) imatinib resistant cells; test: cells; conditions: Homo sapiens, K-562R

IC50 [1]: 217 nM
IC50 [2]: > 12200 nM
SMILES: Cc1ccc(NC(=O)c2ccc(CN3CCN(C)CC3)cc2)cc1Nc1nccc(-c2cccnc2)n1 [imatinib, reference compound]
